# Results published in US20040185510A1 (priority 1996, published 2004).
# Non-standard residues stand in square brackets, D forms with d. No end group written: not given here. Nle = CCCC[C@H](N)C(=O)O
# Assay: general procedure: Fmoc solid-phase peptide synthesis; Rink amide resin; dicyclohexyl-dicarbodiimide/hydroxybenzotriazole
# Details: whole synthesis, 214 nm
substance,measurement,value
[dY]GDY[Nle]GW[Nle]DF-NH2,purity (crude or final not stated),97.8%
